Laboratory results published in article PMC8898245.
No constants are given. Whether binding was seen depends on the method and setting. Binding seen in cells or lysates may run through a third protein. Some binding calls cover weakened binding; strength is not graded here. For part of these data: Tags and fused reporters may be left off the sequences shown. One block for each molecule: values may come before it.

Sequences of proteins named here, by UniProt entry; tags and fusion partners are left off. Residues count along the entry.
UniProt P21860, residues 20-1342: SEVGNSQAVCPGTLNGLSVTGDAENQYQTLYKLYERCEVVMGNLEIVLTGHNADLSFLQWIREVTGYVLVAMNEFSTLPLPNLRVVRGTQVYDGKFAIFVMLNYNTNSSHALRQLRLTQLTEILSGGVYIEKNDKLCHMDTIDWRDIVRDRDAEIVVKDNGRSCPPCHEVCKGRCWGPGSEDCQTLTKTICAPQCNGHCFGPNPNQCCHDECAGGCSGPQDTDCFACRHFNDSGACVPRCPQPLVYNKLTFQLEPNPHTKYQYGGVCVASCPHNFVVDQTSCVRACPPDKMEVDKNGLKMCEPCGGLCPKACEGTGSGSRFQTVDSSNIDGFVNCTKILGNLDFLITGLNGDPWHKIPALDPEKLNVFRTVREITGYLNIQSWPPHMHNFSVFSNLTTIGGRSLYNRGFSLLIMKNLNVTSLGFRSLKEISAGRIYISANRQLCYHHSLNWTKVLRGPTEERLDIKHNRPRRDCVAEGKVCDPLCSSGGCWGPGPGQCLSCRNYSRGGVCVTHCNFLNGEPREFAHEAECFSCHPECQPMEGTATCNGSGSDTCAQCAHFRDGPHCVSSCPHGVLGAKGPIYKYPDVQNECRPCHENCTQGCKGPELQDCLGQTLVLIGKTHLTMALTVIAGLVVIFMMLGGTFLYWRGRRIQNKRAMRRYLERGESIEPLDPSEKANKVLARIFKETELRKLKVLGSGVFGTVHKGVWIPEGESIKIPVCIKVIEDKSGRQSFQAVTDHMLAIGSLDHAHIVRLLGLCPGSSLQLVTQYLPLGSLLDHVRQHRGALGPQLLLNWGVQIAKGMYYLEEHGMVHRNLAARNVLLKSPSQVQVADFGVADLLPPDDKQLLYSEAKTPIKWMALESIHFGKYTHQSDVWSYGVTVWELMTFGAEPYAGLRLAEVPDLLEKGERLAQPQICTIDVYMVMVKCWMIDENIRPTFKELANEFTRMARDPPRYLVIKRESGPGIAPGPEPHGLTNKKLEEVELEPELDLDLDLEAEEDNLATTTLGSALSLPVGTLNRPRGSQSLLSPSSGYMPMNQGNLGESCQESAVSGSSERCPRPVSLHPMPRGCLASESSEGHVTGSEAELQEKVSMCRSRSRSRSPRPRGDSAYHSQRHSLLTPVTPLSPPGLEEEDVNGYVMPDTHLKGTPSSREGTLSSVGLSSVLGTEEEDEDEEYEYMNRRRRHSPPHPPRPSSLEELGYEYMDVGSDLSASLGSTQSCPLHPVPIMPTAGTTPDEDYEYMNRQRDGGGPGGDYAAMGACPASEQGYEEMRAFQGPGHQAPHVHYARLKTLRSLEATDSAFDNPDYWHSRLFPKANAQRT
UniProt P08581, residues 25-1390: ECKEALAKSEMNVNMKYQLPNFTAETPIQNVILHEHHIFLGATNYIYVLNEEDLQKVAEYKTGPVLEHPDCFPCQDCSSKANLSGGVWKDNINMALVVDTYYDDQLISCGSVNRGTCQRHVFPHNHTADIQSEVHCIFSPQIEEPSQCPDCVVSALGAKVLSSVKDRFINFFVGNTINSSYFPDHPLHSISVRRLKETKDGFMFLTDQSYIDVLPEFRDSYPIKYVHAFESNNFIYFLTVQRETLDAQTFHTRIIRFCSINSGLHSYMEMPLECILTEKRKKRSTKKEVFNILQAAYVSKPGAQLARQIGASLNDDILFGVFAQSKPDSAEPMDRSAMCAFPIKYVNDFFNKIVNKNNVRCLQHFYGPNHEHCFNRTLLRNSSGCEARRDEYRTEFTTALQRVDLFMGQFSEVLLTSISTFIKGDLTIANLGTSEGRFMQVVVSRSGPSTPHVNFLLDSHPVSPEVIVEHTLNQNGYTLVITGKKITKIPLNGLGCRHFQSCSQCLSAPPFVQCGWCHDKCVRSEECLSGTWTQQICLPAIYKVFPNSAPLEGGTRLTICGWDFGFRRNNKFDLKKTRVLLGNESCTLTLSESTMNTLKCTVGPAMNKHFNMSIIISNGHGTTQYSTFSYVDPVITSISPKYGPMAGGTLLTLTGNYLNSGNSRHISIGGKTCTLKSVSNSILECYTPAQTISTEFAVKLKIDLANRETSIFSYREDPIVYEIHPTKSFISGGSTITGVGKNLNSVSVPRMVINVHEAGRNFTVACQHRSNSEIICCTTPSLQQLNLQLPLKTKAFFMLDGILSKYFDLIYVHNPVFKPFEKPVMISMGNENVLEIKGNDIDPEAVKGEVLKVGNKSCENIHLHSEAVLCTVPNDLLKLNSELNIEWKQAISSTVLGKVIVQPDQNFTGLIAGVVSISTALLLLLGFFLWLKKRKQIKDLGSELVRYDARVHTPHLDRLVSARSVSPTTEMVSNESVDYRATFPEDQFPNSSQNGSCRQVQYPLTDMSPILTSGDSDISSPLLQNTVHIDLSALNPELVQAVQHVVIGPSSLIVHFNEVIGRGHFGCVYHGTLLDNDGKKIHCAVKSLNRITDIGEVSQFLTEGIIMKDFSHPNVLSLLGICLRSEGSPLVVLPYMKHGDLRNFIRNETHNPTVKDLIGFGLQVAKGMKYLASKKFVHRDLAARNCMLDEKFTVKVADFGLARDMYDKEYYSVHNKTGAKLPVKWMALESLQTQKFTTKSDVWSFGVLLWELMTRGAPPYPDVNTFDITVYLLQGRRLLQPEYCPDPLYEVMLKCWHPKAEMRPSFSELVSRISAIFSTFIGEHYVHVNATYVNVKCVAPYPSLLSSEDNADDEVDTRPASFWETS

Tests used:
[1] = molecular target: T1, MPZL3-V5 (human) (UniProt Q6UWV2); assay: co-IP; KatoII cells stably transduced with MPZL3-V5, vehicle (DMSO); 1 mg lysate in TGH buffer, anti-V5 immunoprecipitation overnight, protein G sepharose, blots for HER3 and Met
T1 sequence: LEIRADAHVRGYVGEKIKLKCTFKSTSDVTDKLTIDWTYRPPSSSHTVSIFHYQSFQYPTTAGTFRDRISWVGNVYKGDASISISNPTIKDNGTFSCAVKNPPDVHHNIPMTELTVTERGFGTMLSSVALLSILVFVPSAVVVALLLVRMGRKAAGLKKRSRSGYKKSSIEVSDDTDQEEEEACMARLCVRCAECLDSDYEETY

[2] = molecular target: T2, MPZL3 C52A (SIMPL construct) (human) (UniProt Q6UWV2); assay: split intein-mediated protein ligation (SIMPL); IN and IC intein fragments fused to bait and prey, co-expressed in HEK293T cells; transfer of the FLAG tag to the V5-tagged bait read by blot
T2 sequence: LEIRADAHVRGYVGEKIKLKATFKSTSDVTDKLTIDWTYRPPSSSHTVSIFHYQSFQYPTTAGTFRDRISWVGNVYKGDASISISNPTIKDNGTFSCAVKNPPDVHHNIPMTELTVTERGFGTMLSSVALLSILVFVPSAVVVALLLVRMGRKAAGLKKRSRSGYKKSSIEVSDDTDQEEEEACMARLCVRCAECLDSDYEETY

[3] = molecular target: T3, MPZL3 R99Q (SIMPL construct) (human) (UniProt Q6UWV2); assay: as above
T3 sequence: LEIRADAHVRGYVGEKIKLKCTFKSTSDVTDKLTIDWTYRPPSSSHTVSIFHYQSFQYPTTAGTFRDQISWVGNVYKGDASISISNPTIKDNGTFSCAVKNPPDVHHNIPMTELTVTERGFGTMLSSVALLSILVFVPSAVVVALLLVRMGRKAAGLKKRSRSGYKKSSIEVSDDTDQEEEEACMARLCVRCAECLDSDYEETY

[4] = molecular target: T4, MPZL3, full-length (co-overexpressed in HEK293T) (human) (UniProt Q6UWV2); assay: co-IP; HER3 and MPZL3 (full-length or ΔECD) co-overexpressed in HEK293T cells; HER3 recovered by MPZL3 quantified; lysate collected 36 h post-transfection, anti-V5 immunoprecipitation
T4 sequence: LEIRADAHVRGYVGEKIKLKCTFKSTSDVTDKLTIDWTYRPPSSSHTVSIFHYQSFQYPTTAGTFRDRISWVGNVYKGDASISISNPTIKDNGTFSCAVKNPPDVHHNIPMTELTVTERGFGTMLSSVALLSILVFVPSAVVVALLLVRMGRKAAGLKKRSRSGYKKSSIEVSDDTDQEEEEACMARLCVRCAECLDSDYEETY

[5] = molecular target: HER3-IN (V5-tagged) (human) (UniProt P21860); assay: split intein-mediated protein ligation (SIMPL); IN and IC intein fragments fused to bait and prey, co-expressed in HEK293T cells; transfer of the FLAG tag to the V5-tagged bait read by blot

Molecule: HER3 (from UniProt P21860 20-1342) (receptor)
binding [1]: binds

Molecule: HER3-IN (V5-tagged) (from UniProt P21860 20-1342) (receptor)
binding [2]: binds
binding [3]: binds

Molecule: HER3 (co-overexpressed in HEK293T) (from UniProt P21860 20-1342) (receptor)
binding [4]: binds

Further lines, results first:

binding [1]: no binding
Molecule: Met (from UniProt P08581 25-1390) (receptor)

binding [5]: binds
B1: MPZL3-IC (FLAG-tagged) (protein, UniProt Q6UWV2 32-235)
chain: LEIRADAHVRGYVGEKIKLKCTFKSTSDVTDKLTIDWTYRPPSSSHTVSIFHYQSFQYPTTAGTFRDRISWVGNVYKGDASISISNPTIKDNGTFSCAVKNPPDVHHNIPMTELTVTERGFGTMLSSVALLSILVFVPSAVVVALLLVRMGRKAAGLKKRSRSGYKKSSIEVSDDTDQEEEEACMARLCVRCAECLDSDYEETY
